Test system: Complex IV subunits and interacting proteins
Test: Mass spectrometric identification of proteins immunocaptured with Complex IV (Tables 9, 10)
Details: Complex IV immunocaptured from bovine heart mitochondria; for Observed chymotryptic % cov / Observed tryptic % cov: LC-MS/MS; for Observed chymotryptic % cov: chymotrypsin digest; for Observed tryptic % cov: trypsin digest; for Total cov.: trypsin and chymotrypsin combined

Substance: VIIa H (FQNRVREKQKLFQEDNDIPLYLKGGIVDNILYRVTMTLCLGGTVYSLYSLGWASFPRN; UniProt P24310 22-79, looked up)
- Observed chymotryptic % cov: 46%
- Observed tryptic % cov: 38%
- Total cov.: 50%

Substance: VIa-H
- Observed chymotryptic % cov: 65%
- Observed tryptic % cov: 42%
- Total cov.: 74%

Reference: US20050153381A1, “Immunocapture of mitochondrial protein complexes” (priority 2002, published 2005)
